Results taken from patent publication US12650422B2, “Utility of protein in the prediction of in vivo effects” (Qualyst Transporter Solutions, LLC, priority 2014, dated 2026).
Some entries share one result that the patent states for a list of compounds.

Tested on: Rat Hepatocytes
Assay: Hepatic intracellular concentration (ICC) in rat hepatocytes, observed vs predicted
Type: in vitro ADME
Source text: The hepatic intracellular concentration (ICC) of a compound, which reflects the balance of the uptake, metabolism, and efflux out of the cell, can also be determined in the absence and presence of protein.

| Compound | Intracellular concentration under-predicted by (Predicted ICC vs Observed ICC) (under-predicted) | Intracellular concentration over-predicted by (Predicted ICC vs Observed ICC) (over-predicted) |
| --- | --- | --- |
| CC(C)c1nc(N(C)S(C)(=O)=O)nc(-c2ccc(F)cc2)c1/C=C/[C@@H](O)C[C@@H](O)CC(=O)O [Rosuvastatin] | greater than 50% |  |
| CCCCC(=O)N(Cc1ccc(-c2ccccc2-c2nnn[nH]2)cc1)[C@H](C(=O)O)C(C)C [Valsartan] |  | greater than 50% |
